Reference: paper PMC11272733, “In vitro assessment of thyroid peroxidase inhibition by chemical exposure: comparison of cell models and detection methods” (Archives of Toxicology, 2024)
Several values for one entry are separate records, joined by “and”; a condition that tells them apart may be missing. Identical values can stand only once. Like-named read-outs stand apart in the source and are kept apart here.

Assay: Nonspecific influence of chemicals on fluorescence signal (resorufin + H2O2, no lysate)
[1] = 100 uM chemical, 0.3 µM resorufin, 40 µM H2O2, 30 min 37°C, vs solvent control
[2] = 200 uM chemical, 0.3 µM resorufin, 40 µM H2O2, 30 min 37°C, vs solvent control
[3] = two highest tested concentrations, resorufin fluorescence

Structure (SMILES) | Mean RFR (Relative Fluorescence Rate) [1] [%] | Mean RFR (Relative Fluorescence Rate) [2] [%] | also measured
CC1(C)S[C@@H]2[C@H](NC(=O)[C@H](N)c3ccccc3)C(=O)N2[C@H]1C(=O)O [AMP, Ampicillin, reference compound] | 100 | 103 | 
O=C(c1ccc(O)cc1O)c1ccc(O)cc1O [BP2, 2,2′-4,4′-tetrahydroxy benzophenone] | 101 | 106 | 
CC(C)(c1ccc(O)cc1)c1ccc(O)cc1 [BPA, Bisphenol A] | 103 | 104 | 
NC(=O)N1c2ccccc2C=Cc2ccccc21 [CBZ, Carbamazepine, reference compound] | 106 | 104 | 
CCCCOC(=O)c1ccccc1C(=O)OCCCC [DBP, Dibutylphthalate] | 93 | 96 | 
CC1=C[C@H]2O[C@@H]3[C@H](O)C[C@](C)([C@@]2(CO)[C@H](O)C1=O)[C@]31CO1 [DON, Deoxynivalenol] | 103 | 109 | 
S=C1NCCN1 [ETU, Ethylene thiourea] |  |  | Mean RFR (Relative Fluorescence Rate): 109% and 110%
CCC(Cc1c(I)cc(I)c(N)c1I)C(=O)O (centres unmarked) [IOP, Iopanoic acid, reference compound] | 103 | 97 | 
Cn1cc[nH]c1=S [MMI, Methimazole, reference compound] | 106 | 104 | 
[O-][Cl+3]([O-])([O-])O [PCL, Perchlorate] | 108 | 106 | 
O=C(O)C(F)(F)C(F)(F)C(F)(F)C(F)(F)C(F)(F)C(F)(F)C(F)(F)F [PFOA, Perfluorooctanoic acid] | 97 | 95 | 
O=S(=O)(O)C(F)(F)C(F)(F)C(F)(F)C(F)(F)C(F)(F)C(F)(F)C(F)(F)C(F)(F)F [PFOS, Perfluorooctane sulfonate] | 89 | 88 | slight signal inhibition/quenching [3]: less than 20%
Oc1cccc(O)c1 [RSC, Resorcinol] | 98 | 99 | 
NC(Cc1cc(I)c(Oc2cc(I)c(O)c(I)c2)c(I)c1)C(=O)O [T4, 3,3′,5,5″-Tetraiodo-L-thyronine, reference compound] |  |  | Mean RFR (Relative Fluorescence Rate) (1 uM chemical, 0.3 µM resorufin, 40 µM H2O2): 103%; Mean RFR (Relative Fluorescence Rate) (2 uM chemical, 0.3 µM resorufin, 40 µM H2O2): 99%
CC(C)(c1cc(Br)c(O)c(Br)c1)c1cc(Br)c(O)c(Br)c1 [TBBPA, Tetrabromobisphenol A] |  |  | Mean RFR (Relative Fluorescence Rate): 94% and 83%; slight signal inhibition/quenching: less than 20%
Oc1cc(Cl)ccc1Oc1ccc(Cl)cc1Cl [TCS, Triclosan] | 84 | 83 | slight signal inhibition/quenching [3]: less than 20%
O=P(Oc1ccccc1)(Oc1ccccc1)Oc1ccccc1 [TPP, Triphenyl phosphate] | 93 | 92 | 
